According to patent publication US6013672A, “Agonists of metabotropic glutamate receptors and uses thereof” (UAB Research Foundation, priority 1997, dated 2000):
For at least one compound, name, drawing or mass did not settle the structure.

Columns and labels:
hippocampal astrocytes = assay: Removal of an exogenous glutamate challenge by astrocyte cultures, [Glu]o over time; assay type: cell-based, rat; details: 500 μM for 24 hour before 50 μM glutamate challenge
Description: The bioluminescence method for detection was used for glutamate in solution as described by Fosse et al. (1986) with only minor modifications. The glutamate-specific reagent mixture contained potassium phosphate (pH 7.0) 25 mM, Triton X-100 40 μg/ml, dithiothreitol 100 μM, Myristyl aldehyde 40 μM (Aldrich; Milwaukee, Wis.), β-NAD 2 mM, ADP 250 μM, FMN 2.5 μM, luciferase 40 μg/ml, NAD(P)H:FMN oxidoreductase 400 mU/ml, glutamate dehydrogenase 0.5 mg/ml. All experiments were performed with a Monolight 2010 luminomitor (Analytical Luminescence Lab; Ann Arbor, Mich.).
For experiments in which [Glu]o concentrations were assessed by the bioluminescence method, cells were maintained in glutamate-depleted medium in the presence or absence of the agonists/antagonist combination of interest. To assess chronic effects, glutamate analogues were applied for 24 hours unless indicated otherwise. […]
Glutamate undoubtedly is the endogenous ligand for mGluRs. […] These studies are difficult since, unlike ACPD, glutamate is also a substrate for the transporter, and therefore, is readily removed. […] First, cells were preincubated for 24 hours with 100 μM glutamate, then washed and [Glu]o measured in MEM, or secondly, glutamate was directly applied in MEM and changes in [Glu]o were monitored.

glial cells = assay: Glial glutamate uptake and extracellular glutamate with MPTP/MPP+ and t-ACPD; assay type: cell-based
Description: The normally low glutamate levels in the brain are established and maintained in glial cells by non-vesicular uptake of glutamate through a Na^+ -dependent transporter (FIG. 14). Once taken up, glutamate can be converted to glutamine and recycled for neurotransmitter synthesis in neurons (FIG. 14). If glial cells in culture are exposed to high glutamate concentrations (e.g., 100 μM), they will remove it from the extracellular space and essentially "detoxify" the neuronal environment. […] Under those conditions, extracellular glutamate levels are elevated to 7 μM (FIG. 16), which is toxic to most surrounding neurons.
Impaired glial glutamate transport may contribute to the loss of dopaminergic neurons in Parkinson's disease. Thus, stimulation of this pathway would be neuroprotective. A drug and its receptor on glial cells was identified that allows enhanced glutamate detoxification. Specifically, trans-ACPD (trans-1-amino-1,3-cyclopentane dicarboxylic acid) (t-ACPD), a group II metabotropic glutamate receptor agonist, enhanced glial glutamate uptake (FIG. 17). It's actions were 2-fold; (i) it enhanced glutamate uptake by up to 80%, and (ii) it decreased non-specific release of glutamate, effectively trapping glutamate inside glial cells. In fact, the release of glutamate decreased to such a large extent that it almost made the transporter rectify, e.g. allowing only influx and preventing outflow of glutamate (FIG. 18). […] Using antibodies and further pharmacological studies, the receptor that is responsible for these effects has been identified as mGluR2/3.
In Parkinson's disease, it is believed that neurons may die of excitotoxic exposure to glutamate. The present invention determined that MPTP directly effects glutamate uptake into astrocytes (FIG. 21, top left). […] This increased release may be sufficient to explain some of the subsequent neurodegeneration.

[1] = system: rat hippocampal brain slices; assay: THA-induced glutamate release in acute hippocampal brain sections; assay type: cell-based; details: 10 h pretreatment
Source text: This was accomplished using THA, a heteroexchange drug that is also a substrate for the glutamate transporter. For each molecule of THA transported into the cell, one molecule of glutamate is released. Therefore, THA allows the induction of glutamate release.

N[C@@]1(C(=O)O)CC[C@@H](C(=O)O)C1 (relative stereo) [trans-ACPD, trans-1-aminocyclopentane-1,3-dicarboxylic acid]
time of maximal decrease in [Glu]o ratio treated versus control (hippocampal astrocytes): 200 min
loss of glutamate uptake induced by MPTP (glial cells): could be compensated for
release of glutamate induced by MPP+ (glial cells): completely inhibited
reduction of THA-induced glutamate release [1]: much larger effects

C[n+]1ccc(-c2ccccc2)cc1 [MPP^+, 1-methyl-4-phenylpyridinium]
ability of glial cells to detoxify glutamate (glial cells): compromised in a dose dependent manner
